Results as given in patent US10519099B2, “Cystobactamides” (priority 2014, dated 2019).
At least one structure is not confirmed: it was looked up by name or label, or the drawing left a doubt.

Tested on: Cystobacter velatus MCy8071
Test: Antibiotic resistance of producer strain MCy8071
Assay type: cell-based
Conditions: final concentration 50 μg ml^−1
Method: MCy8071 is resistant against the following antibiotics: ampicillin, gentamycin, hygromycin, polymycin, bacitracin, spectinomycin, neomycin, and fusidinic acid. Weak growth is possible with cephalosporin and kasugamycin and no growth is possible with thiostrepton, trimethoprin, kanamycin, and oxytetracycline (final concentration of all antibiotics was adjusted to 50 μg ml^−1).

| Compound | growth of strain MCy8071 in presence of antibiotic |
| --- | --- |
| NC[C@H]1O[C@H](O[C@H]2[C@H](O)[C@@H](O[C@H]3O[C@H](CO)[C@@H](O)[C@H](N)[C@H]3O)[C@H](N)C[C@@H]2N)[C@H](O)[C@@H](O)[C@@H]1O [kanamycin] | no growth |
| CN(C)[C@@H]1C(O)=C(C(N)=O)C(=O)[C@@]2(O)C(O)=C3C(=O)c4c(O)cccc4[C@@](C)(O)[C@H]3[C@H](O)[C@@H]12 [oxytetracycline] | no growth |
